{"source": "paper PMC6286129", "about": "“CryoEM structures of open dimers of gyrase A in complex with DNA illuminate mechanism of strand passage” (eLife, 2018)", "biological_target": "GyrA-ΔCTD, Dihedral complex (four open dimers) (UniProt A0A0Y2BJX7)", "test": "cryo-EM", "conditions": "no glutaraldehyde, no antibiotics, C2 map 10.3 A, Assembly: 50 mM Tris-HCl pH 7.5, KCl (concentration not given), 5 mM DTT, 5% glycerol, 10 mM SrCl2, gradient: 50 mM Hepes pH 7.5, 55 mM KCl, recombinant protein", "note": "The exact form of at least one protein or probe is not confirmed.", "data": [{"sequence": "TCGCGACGCGAGGCTGGATGGCCTTCCCCATTATGATTCTTCTC (double strand) [44 bp gyrase-binding DNA]", "values": [{"measurement": "binding result", "value": "binds"}]}]}
